Laboratory results: the supplement of paper PMC12578635
± gives the standard deviation of the averaged measurements. This is one part of the list. Repeats are few or missing, and single values can be far off.

Each compound was assayed on RAW 264.7 macrophages infected with S. aureus JE2-lux (assay: host macrophage viability (CellTiter-Fluor) relative to DMSO vehicle; higher = more viable host cells). Details: 10 µM; treatment time 4 h; gentamicin 50 µg/ml.

| Structure (SMILES) | host macrophage viability [%] |
| --- | --- |
| Cn1cnc([N+](=O)[O-])c1Sc1ccc([N+](=O)[O-])cc1 | 117 |
| O=C1NC(=O)C(=Cc2nc(-c3ccccc3Cl)n3ccccc23)C(=O)N1 | 116 |
| CC1=CC(=C2C(=O)NC(=S)NC2=O)C=C(C)N1Cc1ccco1 | 147 |
| O=C1NC(=O)C(=NNc2ccc(OC(F)F)cc2)C(=O)N1 | 90.1 |
| CS(=O)(=O)c1ccccc1C(=O)Nc1ccc(Cl)cc1C(=O)c1ccccc1Cl | 100 |
| CC1C(C#N)=C(N)Oc2c1c(=O)oc1ccccc21 (stereo not drawn) | 96.8 |
| Cc1ccccc1-c1ncccc1C(=O)N1CCC(C(=O)N2CCC3(CC2)OCCO3)CC1 | 92.6 |
| COC(=O)C1=C(N)Oc2cc(C)n(CC3CCCO3)c(=O)c2C12C(=O)Nc1ccccc12 (stereo not drawn) | 116 |
| O=C1NC(=S)NC(=O)C1=Cc1nc(-c2ccc(Cl)cc2)n2ccccc12 | 126 |
| O=C1CN=C(c2ccc(F)cc2)c2cc(F)ccc2N1 | 121 |
| CCS(=O)(=O)c1cccc(C(=O)Nc2ccc(Cl)cc2C(=O)c2ccccc2)c1 | 121 |
| Cc1cc(O)c(C(=O)Nc2cccc(Cl)c2)c(=O)n1CC1CCCO1 (stereo not drawn) | 120 |
| O=C1NC(=O)C(=Cc2ccc(-c3cccc([N+](=O)[O-])c3)o2)C(=O)N1 | 104.1 ± 0.26 |
| CC(=O)C1(c2ccccc2)CCN(C(=O)c2ncoc2-c2ccc(F)cc2)CC1 | 127 |
| Cc1nnc(N2CCNCC2)c2nn(-c3ccccc3)c(C)c12 | 122 |
| O=C(c1ccccc1)c1cc(Cl)ccc1NC(=O)c1coc2ccccc2c1=O | 107 ± 9.4 |
| CCCCn1c(=S)[nH]c(O)c(C2=NN(C(=O)CC)C(c3ccc(N(CC)CC)cc3)C2)c1=O (stereo not drawn) | 107 |
| Cc1ccc(N2C(=O)NC(=O)/C(=C/c3cn(C)c4ccccc34)C2=O)cc1 | 122 ± 4.1 |
| Cc1ccc(-c2ccc(C=C3C(=O)NC(=O)NC3=O)o2)cc1 | 119 |

Grouped by structure: the compounds so far with a nitro group on carbon (2)

| Structure (SMILES) | host macrophage viability [%] |
| --- | --- |
| Cn1cnc([N+](=O)[O-])c1Sc1ccc([N+](=O)[O-])cc1 | 117 |
| O=C1NC(=O)C(=Cc2ccc(-c3cccc([N+](=O)[O-])c3)o2)C(=O)N1 | 104.1 ± 0.26 |

The list continues.

| Structure (SMILES) | host macrophage viability [%] |
| --- | --- |
| O=C1NC(=O)C(=CNc2ccccc2C(=O)c2ccccc2)C(=O)N1 | 118 |
| CC(=O)N1N=C(c2c(O)n(C)c(=S)n(C)c2=O)CC1c1ccc(C(C)C)cc1 (stereo not drawn) | 124 |
| COc1ccc(OC)c(N2C(=O)NC(=O)/C(=C\c3ccco3)C2=O)c1 | 111 |
| COc1ccc(C=C2C(=O)NC(=O)NC2=O)cc1OC | 119 ± 12 |
| CC(=O)c1cccc(NC(=O)N2CCC3(CC2)OCCO3)c1 | 116 |
| O=C(c1ncoc1-c1ccc(F)cc1)N1CC2CC(C1)c1cccc(=O)n1C2 (stereo not drawn) | 86.6 |
| O=C1NC(=S)NC(=O)C1=CNc1ccc(Cl)cc1C(=O)c1ccccc1 | 123 |
| O=C(Nc1ccncc1)c1cccn(Cc2ccccc2F)c1=O | 136 |
| Cc1nc2nc(-c3ccc(C(C)(C)C)cc3)nn2c(C)c1CC(=O)N1CCN(CCO)CC1 | 110 |
| CC1Oc2ccc(S(=O)(=O)N3CC4CC(C3)c3cccc(=O)n3C4)cc2NC1=O (stereo not drawn) | 102 |
| COC(=O)c1ccc(C(=O)OC)c(NC(=O)c2cccn(Cc3ccc(C)cc3)c2=O)c1 | 146 |
| CCC(=O)N1N=C(c2c(O)[nH]c(=S)n(C)c2=O)CC1c1cc(OC)ccc1OC (stereo not drawn) | 96 |
| CCC(=O)N1N=C(c2c(O)n(C)c(=S)n(C)c2=O)CC1c1ccc(N(CC)CC)cc1 (stereo not drawn) | 106 |
| CN(CCC#N)c1ccc(C=C2C(=O)NC(=S)NC2=O)cc1 | 140 |
| O=C1NC(=S)NC(=O)C1=Cc1ccc(-c2cc(Cl)ccc2Cl)o1 | 107 |
| O=C(c1cccnc1)N1Cc2ccccc2-n2cccc2C1c1cc(F)cc(F)c1 (stereo not drawn) | 120 |
| COC(=O)C1=C(N)Oc2cc(C)n(Cc3ccccc3)c(=O)c2C12C(=O)N(C)c1ccccc12 (stereo not drawn) | 121 |
| O=C(C(=O)N1CCC2(CC1)OCCO2)c1c[nH]c2ccccc12 | 104 ± 21 |
| CCCCn1c(=S)[nH]c(O)c(C2=NN(C(C)=O)C(c3ccc4c(c3)OCO4)C2)c1=O (stereo not drawn) | 132 |
